We go through one substance from paper PMC5007466, “VCP recruitment to mitochondria causes mitophagy impairment and neurodegeneration in models of Huntington's disease” (Nature Communications, 2016).

Chains of the proteins cited; added tags and fusions are not shown. Lines headed by an entry give the natural chain unless they say otherwise; changes in a name come on top.
UniProt P42858: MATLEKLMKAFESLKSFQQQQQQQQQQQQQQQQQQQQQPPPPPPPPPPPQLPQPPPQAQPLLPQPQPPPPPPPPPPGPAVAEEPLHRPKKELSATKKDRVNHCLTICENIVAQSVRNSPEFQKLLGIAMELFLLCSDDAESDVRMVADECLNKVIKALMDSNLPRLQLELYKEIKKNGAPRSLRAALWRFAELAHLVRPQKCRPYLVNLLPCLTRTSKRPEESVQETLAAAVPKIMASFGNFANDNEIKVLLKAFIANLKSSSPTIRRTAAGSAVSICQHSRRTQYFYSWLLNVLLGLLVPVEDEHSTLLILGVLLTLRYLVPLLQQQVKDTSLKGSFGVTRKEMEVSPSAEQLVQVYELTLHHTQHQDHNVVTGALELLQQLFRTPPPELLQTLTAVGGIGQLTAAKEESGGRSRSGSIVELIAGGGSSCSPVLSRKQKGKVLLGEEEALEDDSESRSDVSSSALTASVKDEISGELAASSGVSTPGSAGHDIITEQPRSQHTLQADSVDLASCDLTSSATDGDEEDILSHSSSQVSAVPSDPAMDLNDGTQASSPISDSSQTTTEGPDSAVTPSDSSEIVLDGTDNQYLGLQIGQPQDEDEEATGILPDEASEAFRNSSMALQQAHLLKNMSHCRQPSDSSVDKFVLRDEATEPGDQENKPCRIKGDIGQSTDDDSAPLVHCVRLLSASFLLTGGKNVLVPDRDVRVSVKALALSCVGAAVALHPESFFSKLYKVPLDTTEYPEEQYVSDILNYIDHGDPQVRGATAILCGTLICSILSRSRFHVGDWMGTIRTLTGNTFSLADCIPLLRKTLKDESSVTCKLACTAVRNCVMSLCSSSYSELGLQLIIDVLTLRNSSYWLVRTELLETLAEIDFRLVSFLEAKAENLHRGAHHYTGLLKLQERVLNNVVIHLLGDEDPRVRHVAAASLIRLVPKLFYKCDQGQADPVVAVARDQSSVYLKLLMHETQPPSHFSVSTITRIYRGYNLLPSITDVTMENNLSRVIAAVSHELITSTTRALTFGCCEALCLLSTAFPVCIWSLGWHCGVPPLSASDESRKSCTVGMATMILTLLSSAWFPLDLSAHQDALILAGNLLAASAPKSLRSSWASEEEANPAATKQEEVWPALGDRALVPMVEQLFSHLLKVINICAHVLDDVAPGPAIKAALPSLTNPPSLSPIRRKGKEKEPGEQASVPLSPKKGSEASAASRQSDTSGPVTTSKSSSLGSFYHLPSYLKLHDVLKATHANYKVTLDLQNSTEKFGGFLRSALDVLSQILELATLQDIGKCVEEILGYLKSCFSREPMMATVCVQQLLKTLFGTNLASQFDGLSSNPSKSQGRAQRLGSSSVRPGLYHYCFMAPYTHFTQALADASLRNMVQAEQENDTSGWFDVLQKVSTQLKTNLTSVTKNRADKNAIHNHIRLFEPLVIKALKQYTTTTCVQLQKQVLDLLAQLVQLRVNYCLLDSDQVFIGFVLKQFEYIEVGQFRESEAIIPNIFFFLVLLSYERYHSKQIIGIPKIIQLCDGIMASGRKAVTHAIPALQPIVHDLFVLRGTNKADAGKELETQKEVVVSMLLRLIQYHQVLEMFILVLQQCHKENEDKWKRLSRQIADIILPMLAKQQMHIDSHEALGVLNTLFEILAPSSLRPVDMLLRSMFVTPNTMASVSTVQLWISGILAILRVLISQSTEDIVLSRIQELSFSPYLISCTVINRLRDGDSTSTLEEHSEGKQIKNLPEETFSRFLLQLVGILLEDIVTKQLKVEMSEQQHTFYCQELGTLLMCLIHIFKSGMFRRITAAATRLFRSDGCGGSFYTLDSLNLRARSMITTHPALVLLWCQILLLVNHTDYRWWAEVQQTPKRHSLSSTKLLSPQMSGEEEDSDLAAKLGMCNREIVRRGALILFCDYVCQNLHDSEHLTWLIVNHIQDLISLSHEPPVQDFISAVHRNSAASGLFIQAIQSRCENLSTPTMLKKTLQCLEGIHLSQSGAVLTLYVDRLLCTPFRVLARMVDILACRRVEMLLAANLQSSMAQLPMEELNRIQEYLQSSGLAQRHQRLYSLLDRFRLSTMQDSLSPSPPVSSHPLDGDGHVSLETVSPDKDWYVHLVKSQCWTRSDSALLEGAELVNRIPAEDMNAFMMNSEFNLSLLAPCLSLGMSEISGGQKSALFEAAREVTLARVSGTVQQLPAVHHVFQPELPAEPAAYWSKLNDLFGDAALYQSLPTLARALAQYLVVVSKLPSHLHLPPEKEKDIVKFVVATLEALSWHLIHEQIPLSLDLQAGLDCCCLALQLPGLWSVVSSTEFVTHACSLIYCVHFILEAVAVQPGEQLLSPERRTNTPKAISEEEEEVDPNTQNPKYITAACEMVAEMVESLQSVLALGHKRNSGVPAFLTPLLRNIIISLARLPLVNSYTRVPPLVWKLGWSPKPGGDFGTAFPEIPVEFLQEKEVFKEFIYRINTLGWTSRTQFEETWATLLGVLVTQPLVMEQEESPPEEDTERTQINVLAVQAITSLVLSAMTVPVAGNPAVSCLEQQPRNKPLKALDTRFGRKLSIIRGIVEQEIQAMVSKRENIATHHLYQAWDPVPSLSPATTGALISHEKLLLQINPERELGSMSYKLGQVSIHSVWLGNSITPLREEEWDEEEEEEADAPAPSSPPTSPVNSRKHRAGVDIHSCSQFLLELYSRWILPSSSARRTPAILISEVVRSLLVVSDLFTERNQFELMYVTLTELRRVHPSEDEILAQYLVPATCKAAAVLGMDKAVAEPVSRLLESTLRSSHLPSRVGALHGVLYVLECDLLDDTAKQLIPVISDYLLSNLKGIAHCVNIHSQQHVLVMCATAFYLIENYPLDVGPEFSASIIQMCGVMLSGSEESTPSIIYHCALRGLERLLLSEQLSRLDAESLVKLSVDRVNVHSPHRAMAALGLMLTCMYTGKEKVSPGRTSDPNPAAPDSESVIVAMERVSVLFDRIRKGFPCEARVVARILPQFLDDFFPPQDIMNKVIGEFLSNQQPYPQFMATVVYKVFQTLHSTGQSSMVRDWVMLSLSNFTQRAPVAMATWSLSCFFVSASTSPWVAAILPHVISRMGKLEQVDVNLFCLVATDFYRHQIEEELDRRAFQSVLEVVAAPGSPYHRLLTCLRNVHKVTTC

Experiment [1] addresses valosin-containing protein (VCP), endogenous mouse (mouse (endogenous in HdhQ7/HdhQ111 striatal cells and mouse brain)) (UniProt Q01853). Briefly: co-IP; IP with anti-VCP antibody from ER and cytosolic fractions (HdhQ111 cells, YAC128 mouse striata, HD patient fibroblasts); WB with MAB2166, 1C2 or EM48 antibody.
Experiment [2] shares this target. Briefly: co-IP; IP with anti-VCP antibody from mitochondrial fractions (HdhQ7/HdhQ111 cells, YAC128 mouse striata, HD patient fibroblasts); overnight at 4 °C, protein A/G beads; WB with MAB2166, 1C2 or EM48 antibody.

These are yes or no findings as the source states them, for the method shown. In cells and extracts the contact can be indirect. For some assays here: Binding calls can cover weak binding; strength is not graded here.

With “full-length human mutant huntingtin of YAC128 mice (128 CAG repeats) (from UniProt P42858)”, the binding entry is “no binding (only in ER and cytosolic fractions)” in experiment [1]; “binds” in experiment [2].
